Data as given in PubChem BioAssay AID1259425 (University of Nebraska Medical Center, 2018)

Test: 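Seek colon cancer weak points whose silencing resembles KSR1 loss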 (primary screen)
Cells: HCT116 human colon cancer cells
Knock-down reagent: siRNA pool against human genes, 50 nM siRNA
Detection: 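mRNA of six signature genes measured together by branched-DNA assay after 50 nM siRNA pool, blank removed, divided by geometric mean of two housekeeping genes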
Scale: BNIP3L mRNA: higher = more BNIP3L transcript after knockdown; NDRG1 mRNA: higher = more NDRG1 transcript after knockdown; BNIP3 mRNA: higher = more BNIP3 transcript after knockdown; ALDOC mRNA: higher = more ALDOC transcript after knockdown; ACSL5 mRNA: higher = more ACSL5 transcript after knockdown
The deposit covers about 14,000 reagents; below is a part drawn at random. The numbers tell different reagents against one gene apart. The record does not give: the time to read-out.

| target gene | reagent no. | BNIP3L mRNA, set 1 | NDRG1 mRNA, set 1 | BNIP3 mRNA, set 1 | ALDOC mRNA, set 1 | ACSL5 mRNA, set 1 |
| --- | --- | --- | --- | --- | --- | --- |
| WLS | 1 | 0.135 | 0.226 | 0.353 | 0.0306 | 0.281 |
| SLC7A5P1 | 1 | 0.464 | 0.518 | 0.46 | 0.57 | 0.907 |
| SLC35F5 | 1 | 0.155 | 0.34 | 0.709 | 0.0549 | 0.167 |
| HIRA | 1 | 0.108 | 0.369 | 0.388 | -0.00116 | 0.297 |
| ROBO3 | 1 | 0.12 | 0.736 | 0.37 | 0.0117 | 0.221 |
| GRB2 | 1 | 0.0655 | 0.169 | 0.0879 | 0.0152 | 0.108 |
| MS4A2 | 1 | 0.19 | 0.236 | 0.456 | 0.0557 | 0.371 |
| RAB33A | 1 | 0.0975 | 0.0647 | 0.226 | 0.0267 | 0.0873 |
| NCEH1 | 1 | 0.0655 | 0.0589 | 0.23 | 0.0161 | 0.0936 |
| SYN1 | 1 | 0.0991 | 0.158 | 0.355 | 0.028 | 0.127 |
| INSM1 | 1 | 0.0894 | 0.0567 | 0.342 | 0.00464 | 0.114 |
| QRICH2 | 1 | 0.205 | 0.23 | 0.389 | 0.065 | 0.282 |
| CDCA7L | 1 | 0.107 | 0.382 | 0.387 | 0.0284 | 0.229 |
| UST | 1 | 0.085 | 0.0797 | 0.29 | 0.0304 | 0.036 |
| CENPE | 1 | 0.0608 | 0.195 | 0.414 | 0.0291 | 0.395 |
| WDR12 | 1 | 0.0551 | 0.0807 | 0.294 | 0.00981 | 0.153 |
| CIAO3 | 1 | 0.139 | 0.167 | 0.261 | 0.0173 | 0.202 |
| PVR | 1 | 0.0931 | 0.211 | 0.33 | 0.0207 | 0.131 |
| SNAPIN | 1 | 0.179 | 0.217 | 0.475 | 0.0335 | 0.314 |
| CNOT9 | 1 | 0.232 | 0.695 | 0.313 | 0.0125 | 0.116 |
| PEX26 | 1 | 0.0642 | 0.653 | 0.364 | 0.0179 | 0.083 |
| HBG2 | 1 | 0.084 | 0.124 | 0.185 | 0.0213 | 0.135 |
| CCNC | 1 | 0.104 | 0.108 | 0.31 | 0.0237 | 0.0863 |
| UTP3 | 1 | 0.404 | 0.679 | 0.933 | 0.16 | 0.562 |
| TUFT1 | 1 | 0.227 | 0.436 | 0.362 | 0.0761 | 0.522 |
| RIPK2 | 1 | 0.102 | 0.077 | 0.292 | 0.00831 | 0.156 |
| MTHFS | 1 | 0.175 | 0.622 | 0.312 | 0.0293 | 0.196 |
| HTN3 | 1 | 0.0989 | 0.109 | 0.378 | 0.0143 | 0.174 |
| ELK1 | 1 | 0.165 | 0.138 | 0.499 | 0.0228 | 0.13 |
| MZT2B | 1 | 0.169 | 0.407 | 0.266 | 0.0201 | 0.17 |
| ALX4 | 1 | 0.103 | 1.16 | 0.371 | -0.00166 | 0.181 |
| PDE4DIP | 1 | 0.135 | 0.209 | 0.327 | 0.0288 | 0.297 |
| RBM14 | 1 | 0.115 | 0.13 | 0.381 | 0.0183 | 0.081 |
| RBM14 | 2 | 0.159 | 0.199 | 0.319 | 0.136 | 0.388 |
| RAB13 | 1 | 0.124 | 0.234 | 0.286 | 0.0331 | 0.262 |
| RANBP10 | 1 | 0.0415 | 0.141 | 0.385 | 0.0108 | 0.223 |
| NHP2 | 1 | 1.26 | 3.25 | 3.71 | 0.378 | 0.139 |
| SIRAL1 | 1 | 0.156 | 0.156 | 0.345 | 0.0223 | 0.359 |
| OSMR | 1 | 0.0758 | 0.144 | 0.206 | 0.0357 | 0.128 |
| DMAC2 | 1 | 0.207 | 0.415 | 0.407 | 0.00534 | 0.26 |
| ARHGDIG | 1 | 0.0911 | 0.222 | 0.235 | 0.0176 | 0.102 |
| NAT8B | 1 | 0.0968 | 0.237 | 0.287 | 0.0142 | 0.177 |
| VSNL1 | 1 | 0.0642 | 0.111 | 0.3 | 0.0207 | 0.12 |
| ARSL | 1 | 0.108 | 0.156 | 0.368 | 0.026 | 0.226 |
| RNF181 | 1 | 0.183 | 0.65 | 0.522 | 0.0221 | 0.172 |
| ADAMTS6 | 1 | 0.0889 | 0.189 | 0.219 | 0.0156 | 0.109 |
| TCP10L3 | 1 | 0.171 | 0.719 | 0.358 | 0.0439 | 0.488 |
| EYA1 | 1 | 0.0628 | 0.183 | 0.214 | 0.0164 | 0.161 |
| CSF3R | 1 | 0.101 | 0.0913 | 0.2 | 0.0225 | 0.0989 |
| LTBP3 | 1 | 0.118 | 0.127 | 0.384 | 0.0125 | 0.118 |
| DHRS4 | 1 | 0.106 | 0.433 | 0.184 | 0.0253 | 0.0904 |
| FRY | 1 | 0.198 | 0.167 | 0.341 | 0.0573 | 0.158 |
| ELP3 | 1 | 0.159 | 0.302 | 0.308 | 0.0359 | 0.228 |
| ASGR1 | 1 | 0.13 | 0.17 | 0.382 | 0.0666 | 0.181 |
| CPNE6 | 1 | 0.149 | 0.296 | 0.334 | 0.0561 | 0.131 |
| ZNF214 | 1 | 0.154 | 0.152 | 0.372 | 0.0407 | 0.138 |
| ZBTB24 | 1 | 0.134 | 0.343 | 0.362 | 0.0508 | 0.193 |
| VAPA | 1 | 0.111 | 0.165 | 0.273 | 0.028 | 0.211 |
| PRSS33 | 1 | 0.254 | 0.071 | 0.308 | 0.0129 | 0.0866 |
| LRRC37A2 | 1 | 0.19 | 0.189 | 0.412 | 0.0479 | 0.166 |
| ABRA | 1 | 0.0689 | 0.118 | 0.283 | 0.0106 | 0.195 |
| MAGEA10 | 1 | 0.0984 | 0.359 | 0.274 | 0.0446 | 0.168 |
| HBA2 | 1 | 0.169 | 0.229 | 0.446 | 0.0262 | 0.171 |
